Source: paper doi:10.1101/2020.01.21.913806
Results are given in words; binding and its absence hold for the method and conditions named. Binding seen in cells or lysates may run through a third protein. Some results given as binding are weak or reduced against the parent protein; the word gives no strength. Sequences can lack the tags named with a protein.

The chains behind the UniProt entries cited, without tags or fusion partners.
UniProt P30052, whole entry: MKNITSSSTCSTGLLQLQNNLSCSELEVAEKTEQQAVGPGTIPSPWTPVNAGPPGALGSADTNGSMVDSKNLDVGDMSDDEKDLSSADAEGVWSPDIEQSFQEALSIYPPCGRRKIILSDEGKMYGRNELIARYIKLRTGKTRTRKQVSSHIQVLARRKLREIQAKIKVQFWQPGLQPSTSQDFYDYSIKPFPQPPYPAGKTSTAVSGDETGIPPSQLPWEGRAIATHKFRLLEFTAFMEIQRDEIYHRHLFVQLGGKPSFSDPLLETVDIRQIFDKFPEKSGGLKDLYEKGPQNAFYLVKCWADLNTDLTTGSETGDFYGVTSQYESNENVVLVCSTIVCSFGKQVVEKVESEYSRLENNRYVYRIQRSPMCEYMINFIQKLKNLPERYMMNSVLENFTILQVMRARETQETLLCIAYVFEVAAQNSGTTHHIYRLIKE

Biological target: HA-Sd (Scalloped) (Drosophila) (UniProt P30052)
Assay: co-IP

B1: GFP-Yki (Yorkie) (protein, UniProt Q45VV3 1-395)
chain: MLTTMSASSNTNSLIEKEIDDEDMLSPIKSNNLVVRVNQDTDDNLQALFDSVLNPGDAKRPLQLPLRMRKLPNSFFTPPAPSHSRANSADSTYDAGSQSSINIGNKASIVQQPDGQSPIAAIPQLQIQPSPQHSRLAIHHSRARSSPASLQQNYNVRARSDAAAANNPNANPSSQQQPAGPTFPENSAQEFPSGAPASSAIDLDAMNTCMSQDIPMSMQTVHKKQRSYDVISPIQLNRQLGALPPGWEQAKTNDGQIYYLNHTTKSTQWEDPRIQYRQQQQILMAERIKQNDVLQTTKQTTTSTIANNLGPLPDGWEQAVTESGDLYFINHIDRTTSWNDPRMQSGLSVLDCPDNLVSSLQIEDNLCSNLFNDAQAIVNPPSSHKPDDLEWYKIN
Q: With B1 as the binder, how does the binding read?
A: binds
